# Taken from: PubChem BioAssay AID1224830 (NIAID, 2016)
# Aim: 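Regulators of TLR4 signalling towards TNF-alpha in macrophage-like cells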 (primary screen)
# System: human THP-1 monocytic leukaemia cells, TNF dual-luciferase reporter clone, PMA-differentiated to macrophage-like cells
# Knock-down reagent: siRNA pool against human genes, 50 nM
# Timing: LPS for 4 h, given about 3 days after siRNA transfection
# Treatment: bacterial LPS (TLR4 ligand), 10 ng/ml
# Detection: 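Ratio of firefly to renilla light, scaled to the plate median and expressed as a robust z-score per replicate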
# Direction: TNF reporter robust z-score: higher = stronger TNF reporter response to LPS
# Hit rule: 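a well is active when its z-score exceeds 2.8 or falls below -1.5; control wells carry no call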
# In all, the deposit lists about 18,000 reagents; shown is a part drawn at random. In the full data, about 2,900 (16%) were called active. 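Calls are made per well; low scores hint the gene aids the LPS response, high scores that it dampens it.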 Repeated entries: four replicate wells of each siRNA pool.
target,TNF reporter robust z-score,call
PAAF1 (GeneID 80227),0.5,inactive
PAAF1 (GeneID 80227),-1.79,active
PAAF1 (GeneID 80227),-1.73,active
PAAF1 (GeneID 80227),-1.07,inactive
MCM9 (GeneID 254394),0.62,inactive
MCM9 (GeneID 254394),1.22,inactive
MCM9 (GeneID 254394),1.08,inactive
MCM9 (GeneID 254394),3.51,active
OVOS2P (GeneID 144203),0.64,inactive
OVOS2P (GeneID 144203),1.57,inactive
OVOS2P (GeneID 144203),1.41,inactive
OVOS2P (GeneID 144203),1.7,inactive
HIGD2A (GeneID 192286),0.94,inactive
HIGD2A (GeneID 192286),1.18,inactive
HIGD2A (GeneID 192286),1.64,inactive
HIGD2A (GeneID 192286),1.26,inactive
PIGR (GeneID 5284),-0.88,inactive
PIGR (GeneID 5284),-0.55,inactive
PIGR (GeneID 5284),-0.47,inactive
PIGR (GeneID 5284),-0.62,inactive
SNX33 (GeneID 257364),-0.63,inactive
SNX33 (GeneID 257364),0.27,inactive
SNX33 (GeneID 257364),0.57,inactive
SNX33 (GeneID 257364),0.04,inactive
ATP6V1C2 (GeneID 245973),-0.05,inactive
ATP6V1C2 (GeneID 245973),0.31,inactive
ATP6V1C2 (GeneID 245973),-0.34,inactive
ATP6V1C2 (GeneID 245973),0.65,inactive
ZFYVE9 (GeneID 9372),0.98,inactive
ZFYVE9 (GeneID 9372),-0.7,inactive
ZFYVE9 (GeneID 9372),0.23,inactive
ZFYVE9 (GeneID 9372),2.74,inactive
NIPAL2 (GeneID 79815),2.05,inactive
NIPAL2 (GeneID 79815),0.69,inactive
NIPAL2 (GeneID 79815),0.26,inactive
NIPAL2 (GeneID 79815),-1.18,inactive
ZNHIT2 (GeneID 741),-0.23,inactive
ZNHIT2 (GeneID 741),-0.39,inactive
ZNHIT2 (GeneID 741),0.09,inactive
ZNHIT2 (GeneID 741),-0.1,inactive
AAR2 (GeneID 25980),-0.3,inactive
AAR2 (GeneID 25980),-0.57,inactive
AAR2 (GeneID 25980),0.14,inactive
AAR2 (GeneID 25980),-0.16,inactive
ZNF658B (GeneID 401509),-1.1,inactive
ZNF658B (GeneID 401509),0.37,inactive
ZNF658B (GeneID 401509),-0.23,inactive
ZNF658B (GeneID 401509),-0.92,inactive

Reformatted: 4 of the entries above.
| target | TNF reporter robust z-score | call |
| --- | --- | --- |
| MCM9 (GeneID 254394) | 0.62 | inactive |
| MCM9 (GeneID 254394) | 1.22 | inactive |
| MCM9 (GeneID 254394) | 1.08 | inactive |
| MCM9 (GeneID 254394) | 3.51 | active |
